Experimental findings from patent US4568689A, “Pharmaceutical preparation for the treatment of hypertensive disease and myocardial infarction” (priority 1983, dated 1986) are described below.

The nature of this data set: in vivo. The following applies: mouse, ip, intraperitoneal, white mice. Here is the method: Acute toxicity measurements were carried out in experiments on white mongrel mice upon intraperitoneal administration. […]

Usually LD50 stands for the dose at which mortality reaches 50%.

For `COC(=O)C1=C(C)NC(C)=C(C(=O)OC)C1c1ccccc1[N+](=O)[O-]` [Nifedipine, reference compound], the LD50 came out at 185 mg/kg.
